Results on one molecule are retold here after article PMC5975398.

Amino acid sequences for entries named in this document (tags omitted). A change or cut given only in a name is not applied to a line headed by its entry.
UniProt P03372: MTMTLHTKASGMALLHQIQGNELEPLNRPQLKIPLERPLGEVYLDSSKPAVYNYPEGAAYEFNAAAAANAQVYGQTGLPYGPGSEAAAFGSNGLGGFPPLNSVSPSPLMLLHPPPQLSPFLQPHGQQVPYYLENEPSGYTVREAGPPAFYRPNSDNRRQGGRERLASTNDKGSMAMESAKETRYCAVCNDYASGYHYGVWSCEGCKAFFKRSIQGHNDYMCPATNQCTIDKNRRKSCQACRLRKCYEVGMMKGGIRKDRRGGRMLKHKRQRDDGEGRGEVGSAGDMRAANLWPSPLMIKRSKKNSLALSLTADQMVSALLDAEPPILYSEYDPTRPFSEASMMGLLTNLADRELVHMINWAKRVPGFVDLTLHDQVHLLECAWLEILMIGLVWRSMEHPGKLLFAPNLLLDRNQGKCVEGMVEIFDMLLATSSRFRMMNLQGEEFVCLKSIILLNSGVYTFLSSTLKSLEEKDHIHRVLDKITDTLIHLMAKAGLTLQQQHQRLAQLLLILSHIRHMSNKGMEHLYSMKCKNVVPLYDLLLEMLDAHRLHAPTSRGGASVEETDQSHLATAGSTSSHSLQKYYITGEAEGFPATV

In this assay the target is Estrogen receptor α (human (endogenous in MCF7 or T47D)) (UniProt P03372). In words: Re-ChIP (sequential chromatin immunoprecipitation); formaldehyde-crosslinked, sonicated chromatin of estrogen-treated cells; first immunoprecipitation with anti-ERα, eluted (1X TE, 2% SDS, 15 mM DTT), second immunoprecipitation with anti-ERRβ; read out by PCR of the half ERE sites of the ERRβ promoter.

These are yes or no findings as the source states them, for the method shown. Some binding calls cover weakened binding; strength is not graded here.

B1: Estrogen related receptor β (receptor, UniProt O95718 1-433)
chain: MSSDDRHLGSSCGSFIKTEPSSPSSGIDALSHHSPSGSSDASGGFGLALGTHANGLDSPPMFAGAGLGGTPCRKSYEDCASGIMEDSAIKCEYMLNAIPKRLCLVCGDIASGYHYGVASCEACKAFFKRTIQGNIEYSCPATNECEITKRRRKSCQACRFMKCLKVGMLKEGVRLDRVRGGRQKYKRRLDSESSPYLSLQISPPAKKPLTKIVSYLLVAEPDKLYAMPPPGMPEGDIKALTTLCDLADRELVVIIGWAKHIPGFSSLSLGDQMSLLQSAWMEILILGIVYRSLPYDDKLVYAEDYIMDEEHSRLAGLLELYRAILQLVRRYKKLKVEKEEFVTLKALALANSDSMYIEDLEAVQKLQDLLHEALQDYELSQRHEEPWRTGKLLLTLPLLRQTAAKAVQHFYSVKLQGKVPMHKLFLEMLEAKV
On to B1, for which the binding entry is given as “binds”.
